Test results taken from the supplement of paper PMC10849652.
Some of the results follow.

By UniProt entry, the sequences of proteins in these tests, tags left out. Where a name states a change or a piece, a line headed by the entry shows the natural chain unless it says otherwise.
UniProt P55809: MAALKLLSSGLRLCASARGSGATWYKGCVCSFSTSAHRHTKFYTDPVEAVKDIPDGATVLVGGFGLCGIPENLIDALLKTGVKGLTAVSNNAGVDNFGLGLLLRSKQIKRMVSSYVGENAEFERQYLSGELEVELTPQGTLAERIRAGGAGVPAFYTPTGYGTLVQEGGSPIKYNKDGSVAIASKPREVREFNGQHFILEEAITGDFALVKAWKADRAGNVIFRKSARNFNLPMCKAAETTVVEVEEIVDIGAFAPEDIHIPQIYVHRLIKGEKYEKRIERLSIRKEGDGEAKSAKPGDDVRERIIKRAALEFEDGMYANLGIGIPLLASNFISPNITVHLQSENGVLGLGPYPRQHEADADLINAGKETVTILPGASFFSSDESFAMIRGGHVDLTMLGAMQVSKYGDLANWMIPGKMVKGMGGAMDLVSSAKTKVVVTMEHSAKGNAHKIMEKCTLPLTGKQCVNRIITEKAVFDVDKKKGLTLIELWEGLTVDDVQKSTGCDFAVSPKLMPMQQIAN
UniProt Q9BTK6, whole entry, looked up: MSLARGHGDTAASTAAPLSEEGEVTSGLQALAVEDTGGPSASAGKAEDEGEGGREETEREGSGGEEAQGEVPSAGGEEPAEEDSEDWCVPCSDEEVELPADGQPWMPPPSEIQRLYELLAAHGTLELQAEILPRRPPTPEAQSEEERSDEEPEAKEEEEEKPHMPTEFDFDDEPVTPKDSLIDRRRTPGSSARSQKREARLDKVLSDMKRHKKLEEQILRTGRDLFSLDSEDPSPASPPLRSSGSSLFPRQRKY
UniProt O60313: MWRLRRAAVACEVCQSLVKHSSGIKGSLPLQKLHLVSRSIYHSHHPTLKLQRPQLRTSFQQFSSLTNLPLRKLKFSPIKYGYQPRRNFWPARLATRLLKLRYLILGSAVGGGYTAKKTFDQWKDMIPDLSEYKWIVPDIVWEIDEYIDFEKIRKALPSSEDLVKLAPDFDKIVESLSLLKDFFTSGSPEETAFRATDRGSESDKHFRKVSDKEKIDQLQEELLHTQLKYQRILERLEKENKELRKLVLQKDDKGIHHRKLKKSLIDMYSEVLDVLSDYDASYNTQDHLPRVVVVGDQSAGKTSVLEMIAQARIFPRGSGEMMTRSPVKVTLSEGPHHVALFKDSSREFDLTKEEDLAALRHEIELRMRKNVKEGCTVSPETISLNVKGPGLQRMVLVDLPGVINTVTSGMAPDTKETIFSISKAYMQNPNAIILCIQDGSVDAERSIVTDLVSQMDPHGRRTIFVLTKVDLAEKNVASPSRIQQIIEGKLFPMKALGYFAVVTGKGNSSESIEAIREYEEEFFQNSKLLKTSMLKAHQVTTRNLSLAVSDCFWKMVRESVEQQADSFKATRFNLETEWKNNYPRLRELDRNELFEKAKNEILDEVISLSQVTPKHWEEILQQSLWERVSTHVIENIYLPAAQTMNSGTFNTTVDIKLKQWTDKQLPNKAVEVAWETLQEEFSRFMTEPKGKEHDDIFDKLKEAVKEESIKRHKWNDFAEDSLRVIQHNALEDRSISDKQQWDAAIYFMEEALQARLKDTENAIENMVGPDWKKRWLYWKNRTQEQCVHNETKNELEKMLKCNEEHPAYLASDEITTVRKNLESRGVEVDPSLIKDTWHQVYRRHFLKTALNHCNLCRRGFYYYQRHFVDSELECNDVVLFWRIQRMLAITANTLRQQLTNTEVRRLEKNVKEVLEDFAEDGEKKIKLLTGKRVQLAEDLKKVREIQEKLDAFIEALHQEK
UniProt O43252: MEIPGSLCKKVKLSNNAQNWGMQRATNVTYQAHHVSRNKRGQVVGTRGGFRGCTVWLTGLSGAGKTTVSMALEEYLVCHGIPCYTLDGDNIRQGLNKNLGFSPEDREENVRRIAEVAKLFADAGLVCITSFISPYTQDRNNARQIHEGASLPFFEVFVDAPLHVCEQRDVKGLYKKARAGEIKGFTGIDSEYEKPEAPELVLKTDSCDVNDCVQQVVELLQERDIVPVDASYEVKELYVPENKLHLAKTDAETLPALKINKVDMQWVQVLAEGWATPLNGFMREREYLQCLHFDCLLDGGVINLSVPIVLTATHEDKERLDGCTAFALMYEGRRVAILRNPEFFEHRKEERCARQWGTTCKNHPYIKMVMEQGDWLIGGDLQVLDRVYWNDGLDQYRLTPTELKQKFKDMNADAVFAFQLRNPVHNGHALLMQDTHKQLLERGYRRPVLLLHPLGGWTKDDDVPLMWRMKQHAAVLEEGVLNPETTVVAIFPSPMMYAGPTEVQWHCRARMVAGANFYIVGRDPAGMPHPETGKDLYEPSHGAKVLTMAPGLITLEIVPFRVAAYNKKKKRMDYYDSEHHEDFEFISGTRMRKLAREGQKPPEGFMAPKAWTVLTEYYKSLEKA
UniProt Q96FW1, whole entry, looked up: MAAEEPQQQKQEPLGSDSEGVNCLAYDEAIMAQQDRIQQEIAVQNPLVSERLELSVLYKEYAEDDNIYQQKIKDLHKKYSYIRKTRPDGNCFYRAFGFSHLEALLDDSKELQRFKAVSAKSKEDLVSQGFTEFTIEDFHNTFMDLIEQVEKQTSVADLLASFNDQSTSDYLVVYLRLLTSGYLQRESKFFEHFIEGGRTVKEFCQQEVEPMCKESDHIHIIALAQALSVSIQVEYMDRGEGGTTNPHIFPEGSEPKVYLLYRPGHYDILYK
UniProt P04181: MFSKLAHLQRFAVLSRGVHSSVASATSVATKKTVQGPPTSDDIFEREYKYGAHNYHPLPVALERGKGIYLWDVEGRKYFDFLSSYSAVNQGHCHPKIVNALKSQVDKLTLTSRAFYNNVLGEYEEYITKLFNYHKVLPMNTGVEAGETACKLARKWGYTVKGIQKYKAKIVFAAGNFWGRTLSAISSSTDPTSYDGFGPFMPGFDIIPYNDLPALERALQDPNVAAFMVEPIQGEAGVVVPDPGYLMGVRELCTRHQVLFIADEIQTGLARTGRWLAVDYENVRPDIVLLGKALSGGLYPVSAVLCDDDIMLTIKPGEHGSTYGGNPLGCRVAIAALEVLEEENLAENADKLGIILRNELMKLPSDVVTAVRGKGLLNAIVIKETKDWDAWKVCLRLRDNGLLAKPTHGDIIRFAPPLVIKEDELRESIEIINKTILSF
UniProt Q13438: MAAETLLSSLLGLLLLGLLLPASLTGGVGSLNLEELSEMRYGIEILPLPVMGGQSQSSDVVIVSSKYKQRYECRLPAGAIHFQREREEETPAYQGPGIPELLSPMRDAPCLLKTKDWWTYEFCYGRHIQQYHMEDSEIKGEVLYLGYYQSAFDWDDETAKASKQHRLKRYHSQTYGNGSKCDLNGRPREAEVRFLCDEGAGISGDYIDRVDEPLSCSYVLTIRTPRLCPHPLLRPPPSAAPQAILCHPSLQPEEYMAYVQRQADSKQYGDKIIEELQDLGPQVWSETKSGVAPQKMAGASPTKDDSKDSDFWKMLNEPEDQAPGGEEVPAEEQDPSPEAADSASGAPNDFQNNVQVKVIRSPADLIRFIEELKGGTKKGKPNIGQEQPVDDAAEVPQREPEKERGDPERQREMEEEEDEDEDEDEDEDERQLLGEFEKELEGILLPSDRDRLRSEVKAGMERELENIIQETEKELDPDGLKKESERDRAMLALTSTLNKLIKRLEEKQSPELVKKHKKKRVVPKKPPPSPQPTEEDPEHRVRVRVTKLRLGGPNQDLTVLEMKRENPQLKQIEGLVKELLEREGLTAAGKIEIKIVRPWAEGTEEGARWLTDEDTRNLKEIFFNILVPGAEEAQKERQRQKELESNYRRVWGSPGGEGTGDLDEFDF
UniProt O43913: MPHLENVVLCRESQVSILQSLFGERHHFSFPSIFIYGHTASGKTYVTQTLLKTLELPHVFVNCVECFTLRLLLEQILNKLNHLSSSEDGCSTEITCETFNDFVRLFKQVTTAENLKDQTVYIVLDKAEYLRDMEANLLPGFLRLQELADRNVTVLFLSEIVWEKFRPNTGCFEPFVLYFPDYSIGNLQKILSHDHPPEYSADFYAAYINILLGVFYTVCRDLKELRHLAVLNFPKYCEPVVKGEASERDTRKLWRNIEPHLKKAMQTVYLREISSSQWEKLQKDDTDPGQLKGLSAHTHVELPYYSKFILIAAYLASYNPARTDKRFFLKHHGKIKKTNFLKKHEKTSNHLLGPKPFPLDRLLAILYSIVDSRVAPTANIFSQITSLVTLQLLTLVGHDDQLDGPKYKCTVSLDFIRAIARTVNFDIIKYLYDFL
UniProt Q6VY07, whole entry, looked up: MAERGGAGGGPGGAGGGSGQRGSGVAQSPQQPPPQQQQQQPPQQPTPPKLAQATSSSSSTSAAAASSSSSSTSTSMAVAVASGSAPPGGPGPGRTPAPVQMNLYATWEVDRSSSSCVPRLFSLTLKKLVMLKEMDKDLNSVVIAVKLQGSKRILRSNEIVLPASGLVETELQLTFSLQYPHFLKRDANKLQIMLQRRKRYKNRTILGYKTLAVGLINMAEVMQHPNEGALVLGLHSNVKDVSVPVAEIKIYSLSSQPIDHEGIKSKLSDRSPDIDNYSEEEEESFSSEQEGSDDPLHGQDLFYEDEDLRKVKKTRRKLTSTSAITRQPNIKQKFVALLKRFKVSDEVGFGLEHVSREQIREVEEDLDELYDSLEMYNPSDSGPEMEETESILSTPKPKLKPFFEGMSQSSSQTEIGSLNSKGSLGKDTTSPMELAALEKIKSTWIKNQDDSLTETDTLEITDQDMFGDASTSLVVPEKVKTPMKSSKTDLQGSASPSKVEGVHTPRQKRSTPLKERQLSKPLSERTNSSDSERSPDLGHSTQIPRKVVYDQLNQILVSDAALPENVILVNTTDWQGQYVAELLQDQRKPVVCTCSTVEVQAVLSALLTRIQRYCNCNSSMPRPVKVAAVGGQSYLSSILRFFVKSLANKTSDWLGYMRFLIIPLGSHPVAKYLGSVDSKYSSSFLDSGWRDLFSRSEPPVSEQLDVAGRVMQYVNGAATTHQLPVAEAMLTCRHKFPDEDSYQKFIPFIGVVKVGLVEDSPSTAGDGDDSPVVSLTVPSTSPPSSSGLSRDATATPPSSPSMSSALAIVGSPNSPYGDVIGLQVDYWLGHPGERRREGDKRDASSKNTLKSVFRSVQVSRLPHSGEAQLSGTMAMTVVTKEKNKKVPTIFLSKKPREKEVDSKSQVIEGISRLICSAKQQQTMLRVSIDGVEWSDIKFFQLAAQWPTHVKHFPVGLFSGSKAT
UniProt Q9H1P3, whole entry, looked up: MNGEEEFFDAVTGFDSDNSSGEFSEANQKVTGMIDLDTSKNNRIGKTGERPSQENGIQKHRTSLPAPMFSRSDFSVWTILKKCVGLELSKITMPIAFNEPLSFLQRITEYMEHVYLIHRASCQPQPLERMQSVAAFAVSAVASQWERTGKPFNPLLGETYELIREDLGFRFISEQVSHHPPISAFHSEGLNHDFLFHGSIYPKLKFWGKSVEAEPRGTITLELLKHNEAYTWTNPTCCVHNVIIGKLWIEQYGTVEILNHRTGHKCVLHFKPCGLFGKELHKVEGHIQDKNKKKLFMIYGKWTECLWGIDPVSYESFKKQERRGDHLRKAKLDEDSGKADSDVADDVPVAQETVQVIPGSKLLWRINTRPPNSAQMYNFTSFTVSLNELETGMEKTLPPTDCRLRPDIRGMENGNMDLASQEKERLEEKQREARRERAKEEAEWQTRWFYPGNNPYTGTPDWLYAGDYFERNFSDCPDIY
UniProt Q9H4L5: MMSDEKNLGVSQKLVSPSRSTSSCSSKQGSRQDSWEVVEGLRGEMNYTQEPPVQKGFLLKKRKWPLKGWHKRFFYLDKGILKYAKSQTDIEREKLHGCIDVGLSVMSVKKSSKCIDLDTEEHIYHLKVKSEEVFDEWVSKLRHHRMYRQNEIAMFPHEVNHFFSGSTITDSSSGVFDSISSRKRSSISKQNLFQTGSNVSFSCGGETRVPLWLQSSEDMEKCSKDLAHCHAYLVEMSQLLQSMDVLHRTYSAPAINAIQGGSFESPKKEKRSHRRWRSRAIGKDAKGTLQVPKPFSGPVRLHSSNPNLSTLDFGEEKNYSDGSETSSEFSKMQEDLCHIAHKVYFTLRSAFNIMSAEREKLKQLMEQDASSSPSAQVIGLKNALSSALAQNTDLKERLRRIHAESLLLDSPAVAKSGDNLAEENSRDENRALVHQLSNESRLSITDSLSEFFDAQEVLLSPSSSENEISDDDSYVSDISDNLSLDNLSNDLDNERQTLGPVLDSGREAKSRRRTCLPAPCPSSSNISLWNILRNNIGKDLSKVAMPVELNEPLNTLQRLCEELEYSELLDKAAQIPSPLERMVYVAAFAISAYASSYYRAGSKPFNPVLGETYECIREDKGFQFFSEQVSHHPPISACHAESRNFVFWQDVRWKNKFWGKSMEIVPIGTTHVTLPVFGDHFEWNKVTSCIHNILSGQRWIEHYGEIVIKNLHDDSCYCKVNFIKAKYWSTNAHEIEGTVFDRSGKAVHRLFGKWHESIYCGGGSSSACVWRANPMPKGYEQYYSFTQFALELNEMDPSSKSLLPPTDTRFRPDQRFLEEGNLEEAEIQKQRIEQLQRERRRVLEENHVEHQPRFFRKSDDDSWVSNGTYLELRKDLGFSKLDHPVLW

Columns and labels:
Assay in all cases: log2 fold change, soluble protein after heating vs DMSO (PISA); higher = thermal stabilisation; K562 lysate, 10 uM; active = over 0.2 and 3.5 SD of the protein, either way, in both replicates (recomputed)
[1] = compound: CS(=O)(=O)CCNCc1ccc(-c2ccc3ncnc(Nc4ccc(OCc5cccc(F)c5)c(Cl)c4)c3c2)o1 [lapatinib]
How it was run: (§1)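 Following dounce homogenisation of K562 pellets in PBS pH 7.4 with 1 mM MgCl2, crude extract at 1 mg/mL protein was incubated for 30 min with 10 μM compound. Aliquots were then heated for 3 min over 48°C-58°C and pooled, NP-40 was added to 0.5% at 4°C, and soluble protein was recovered as the supernatant at 21,000xg for 90 min. Channel-sum-equalised TMTpro 16plex LC-MS/MS quantified this protein. Each value, from duplicates, is a log-two fold change in thermal stability relative to solvent controls.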

[2] = compound: CS(=O)(=O)N1CCN(Cc2cc3nc(-c4cccc5[nH]ncc45)nc(N4CCOCC4)c3s2)CC1 [pictilisib]
How it was run: as §1

[3] = compound: C[C@@H](Oc1cc(-c2cnn(C3CCNCC3)c2)cnc1N)c1c(Cl)ccc(F)c1Cl [crizotinib]
How it was run: as §1

[4] = compound: C[C@H](C1=CC=C(C=C1)C(=O)NC2=C3C=CNC3=NC=C2)N
How it was run: as §1

[5] = compound: C[C@H](Nc1ncnc2nc[nH]c12)c1cc2cccc(Cl)c2c(=O)n1-c1ccccc1 [duvelisib]
How it was run: as §1

[6] = compound: Cc1cc(Nc2cc(CN3CCOCC3)c3nc(C)c(Cc4ccc(Cl)cc4F)n3n2)n[nH]1 [gandotinib]
How it was run: as §1

[7] = compound: Cc1cc(Nc2cc(N3CCN(C)CC3)nc(Sc3ccc(NC(=O)C4CC4)cc3)n2)n[nH]1 [tozasertib]
How it was run: as §1

[8] = compound: Cc1ccc(-n2nc(C(C)(C)C)cc2NC(=O)Nc2ccc(OCCN3CCOCC3)c3ccccc23)cc1 [doramapimod]
How it was run: as §1

[9] = compound: Cc1ccc(NC(=O)c2ccc(CN3CC[C@H](N(C)C)C3)c(C(F)(F)F)c2)cc1Nc1nccc(-c2cncnc2)n1 [bafetinib]
How it was run: as §1

[10] = compound: Cc1cccc(CC(=O)N2CCc3c2ccc(-c2cn(C)c4ncnc(N)c24)c3F)n1
How it was run: as §1

Row | Target | log2 fold change [1] | log2 fold change [2] | log2 fold change [3] | log2 fold change [4] | log2 fold change [5] | log2 fold change [6] | log2 fold change [7] | log2 fold change [8] | log2 fold change [9] | log2 fold change [10]
1 | OXA1L (UniProt Q15070) | inactive: -0.036 | inactive: -0.015 | inactive: -0.051 | inactive: -0.097 | inactive: -0.034 | inactive: 0 | inactive: 0.038 | inactive: -0.022 | inactive: -0.061 | inactive: 0.09
2 | PALMD (UniProt Q9NP74) | inactive: 0.047 | inactive: -0.071 | inactive: 0.039 | inactive: -0.056 | inactive: 0.031 | inactive: 0.051 | inactive: -0.027 | inactive: -0.001 | inactive: 0.063 | inactive: -0.041
3 | NUP85 (UniProt Q9BW27) | inactive: 0 | inactive: -0.026 | inactive: 0.001 | inactive: -0.052 | inactive: 0.001 | inactive: 0.005 | inactive: 0.02 | inactive: 0.011 | inactive: -0.065 | inactive: 0.081
4 | OXCT1 (UniProt P55809) | inactive: 0.001 | inactive: -0.036 | inactive: 0.013 | inactive: 0.003 | inactive: -0.006 | inactive: -0.003 | inactive: -0.01 | inactive: -0.016 | inactive: 0.015 | inactive: -0.026
5 | PAGR1 (UniProt Q9BTK6) | inactive: -0.062 | inactive: 0.017 | inactive: 0.02 | inactive: 0.018 | inactive: 0.048 | inactive: -0.033 | inactive: -0.061 | inactive: 0.056 | inactive: 0.021 | inactive: -0.16
6 | OPA1 isoform 2 (UniProt O60313) | inactive: -0.017 | inactive: 0.002 | inactive: -0.096 | inactive: -0.013 | inactive: -0.002 | active: -0.248 | inactive: 0.03 | inactive: 0.023 | inactive: -0.073 | inactive: 0.048
7 | PAICS (UniProt P22234) | inactive: 0.019 | inactive: 0.02 | inactive: 0.022 | inactive: -0.037 | inactive: -0.012 | inactive: 0.042 | inactive: -0.006 | inactive: -0.016 | inactive: 0.171 | inactive: 0.001
8 | PANK4 (UniProt Q9NVE7) | inactive: -0.019 | inactive: -0.037 | inactive: -0.052 | inactive: -0.049 | inactive: -0.009 | inactive: 0.125 | inactive: 0.001 | inactive: -0.001 | inactive: -0.06 | inactive: 0.022
9 | PAAT (UniProt Q9H8K7) | inactive: 0.009 | inactive: -0.017 | inactive: -0.213 | inactive: -0.016 | inactive: -0.029 | inactive: 0.033 | inactive: 0.032 | inactive: -0.035 | inactive: 0 | inactive: -0.073
10 | PAPSS1 (UniProt O43252) | inactive: 0.008 | inactive: 0.002 | inactive: 0 | inactive: -0.013 | inactive: -0.003 | inactive: 0.008 | inactive: 0.058 | inactive: -0.002 | inactive: 0.008 | inactive: 0.048
11 | OTUB1 (UniProt Q96FW1) | inactive: 0.004 | inactive: -0.034 | inactive: -0.002 | inactive: -0.035 | inactive: 0 | inactive: 0.019 | inactive: -0.021 | inactive: 0.005 | inactive: -0.042 | inactive: -0.016
12 | NUP43 (UniProt Q8NFH3) | inactive: -0.021 | inactive: -0.012 | inactive: 0.015 | inactive: -0.025 | inactive: -0.012 | inactive: 0.053 | inactive: -0.005 | inactive: -0.011 | inactive: -0.045 | inactive: 0.009
13 | OTULIN (UniProt Q96BN8) | inactive: -0.001 | inactive: 0.021 | inactive: -0.027 | inactive: -0.019 | inactive: -0.025 | inactive: -0.019 | inactive: 0.018 | inactive: 0.087 | inactive: -0.049 | inactive: 0.04
14 | PANX1 (UniProt Q96RD7) | inactive: -0.02 | inactive: -0.189 | inactive: 0.078 | inactive: 0.031 | inactive: -0.002 | inactive: -0.004 | inactive: 0.02 | inactive: 0.03 | inactive: -0.007 | inactive: -0.054
15 | OSBP (UniProt P22059) | inactive: -0.101 | inactive: -0.046 | inactive: 0.007 | inactive: 0 | inactive: 0.037 | inactive: -0.072 | inactive: -0.015 | inactive: -0.028 | inactive: -0.093 | inactive: 0.03
16 | PAK1IP1 (UniProt Q9NWT1) | inactive: -0.042 | inactive: -0.027 | inactive: 0.03 | inactive: -0.01 | inactive: 0.026 | inactive: 0.04 | inactive: 0.028 | inactive: 0.022 | inactive: -0.044 | inactive: 0
17 | PACSIN2 (UniProt Q9UNF0) | inactive: 0.001 | inactive: -0.006 | inactive: 0.039 | inactive: 0.037 | inactive: -0.008 | inactive: -0.07 | inactive: -0.005 | inactive: -0.017 | inactive: -0.002 | inactive: -0.056
18 | OSBPL11 (UniProt Q9BXB4) | inactive: -0.021 | inactive: -0.094 | inactive: 0.042 | inactive: 0.008 | inactive: 0.007 | inactive: -0.068 | inactive: -0.077 | inactive: -0.079 | inactive: 0.039 | inactive: 0.004
19 | OAT (UniProt P04181) | inactive: -0.02 | inactive: 0.021 | inactive: -0.034 | inactive: -0.066 | inactive: -0.025 | inactive: 0.063 | inactive: 0.01 | inactive: -0.029 | inactive: 0 | inactive: 0.044
20 | OPLAH (UniProt O14841) | inactive: -0.028 | inactive: 0.028 | inactive: 0.01 | inactive: -0.005 | inactive: -0.111 | inactive: -0.006 | inactive: -0.059 | inactive: 0.04 | inactive: -0.035 | inactive: 0.028
21 | OS9 (UniProt Q13438) | inactive: -0.013 | inactive: 0.012 | inactive: -0.008 | inactive: -0.008 | inactive: -0.015 | inactive: 0.013 | inactive: 0.007 | inactive: 0.006 | inactive: -0.002 | inactive: 0.043
22 | NUP42 (UniProt O15504) | inactive: 0 | inactive: -0.012 | inactive: -0.034 | inactive: 0.105 | inactive: -0.033 | inactive: -0.064 | inactive: 0.021 | inactive: 0.03 | inactive: -0.052 | inactive: -0.052
23 | ORC5 (UniProt O43913) | inactive: -0.014 | inactive: -0.049 | inactive: -0.137 | inactive: -0.009 | inactive: -0.016 | inactive: -0.113 | inactive: -0.023 | inactive: 0.027 | inactive: -0.069 | inactive: 0.045
24 | NUP58 (UniProt Q9BVL2) | inactive: 0.046 | inactive: 0.008 | inactive: 0.047 | inactive: -0.08 | inactive: 0.024 | inactive: 0.005 | inactive: 0.012 | inactive: -0.02 | inactive: 0 | inactive: 0.036
25 | PACS1 (UniProt Q6VY07) | inactive: 0.005 | inactive: -0.013 | inactive: -0.008 | inactive: 0.002 | inactive: -0.025 | inactive: 0.002 | inactive: 0.05 | inactive: 0.019 | inactive: -0.015 | inactive: -0.002
26 | OSBPL2 (UniProt Q9H1P3) | inactive: 0.125 | inactive: -0.019 | inactive: -0.029 | inactive: -0.078 | inactive: -0.022 | inactive: -0.065 | inactive: 0.002 | inactive: -0.023 | inactive: -0.022 | inactive: 0.142
27 | PAFAH1B2 (UniProt P68402) | inactive: 0.063 | inactive: -0.08 | inactive: -0.029 | inactive: 0.023 | inactive: 0.056 | inactive: 0.011 | inactive: 0.063 | inactive: -0.031 | inactive: 0.061 | inactive: 0.107
28 | OSBPL3 isoform 2 (UniProt Q9H4L5) | inactive: 0.073 | inactive: -0.039 | inactive: 0.014 | inactive: -0.045 | inactive: 0.03 | inactive: -0.052 | inactive: -0.005 | inactive: 0.107 | inactive: 0.269 | inactive: 0.035
29 | PARD6B (UniProt Q9BYG5) | inactive: 0.036 | inactive: -0.013 | inactive: -0.015 | inactive: -0.013 | inactive: 0.022 | inactive: 0.033 | inactive: -0.017 | inactive: 0.035 | inactive: -0.063 | inactive: 0.028
30 | PALM3 (UniProt A6NDB9) | inactive: 0.048 | inactive: -0.102 | inactive: -0.004 | inactive: -0.122 | inactive: -0.019 | inactive: 0.015 | inactive: -0.038 | inactive: 0.037 | inactive: 0.053 | inactive: 0.023

A second format for some results above.

| Row | Target | log2 fold change [1] | log2 fold change [2] | log2 fold change [3] | log2 fold change [4] | log2 fold change [5] | log2 fold change [6] | log2 fold change [7] | log2 fold change [8] | log2 fold change [9] | log2 fold change [10] |
| --- | --- | --- | --- | --- | --- | --- | --- | --- | --- | --- | --- |
| 24 | NUP58 (UniProt Q9BVL2) | inactive: 0.046 | inactive: 0.008 | inactive: 0.047 | inactive: -0.08 | inactive: 0.024 | inactive: 0.005 | inactive: 0.012 | inactive: -0.02 | inactive: 0 | inactive: 0.036 |
| 25 | PACS1 (UniProt Q6VY07) | inactive: 0.005 | inactive: -0.013 | inactive: -0.008 | inactive: 0.002 | inactive: -0.025 | inactive: 0.002 | inactive: 0.05 | inactive: 0.019 | inactive: -0.015 | inactive: -0.002 |
